## Percent effect of library compounds

The chains behind the UniProt entries cited, without tags or fusion partners. Residues count along the entry.
UniProt A4I591, 1-473: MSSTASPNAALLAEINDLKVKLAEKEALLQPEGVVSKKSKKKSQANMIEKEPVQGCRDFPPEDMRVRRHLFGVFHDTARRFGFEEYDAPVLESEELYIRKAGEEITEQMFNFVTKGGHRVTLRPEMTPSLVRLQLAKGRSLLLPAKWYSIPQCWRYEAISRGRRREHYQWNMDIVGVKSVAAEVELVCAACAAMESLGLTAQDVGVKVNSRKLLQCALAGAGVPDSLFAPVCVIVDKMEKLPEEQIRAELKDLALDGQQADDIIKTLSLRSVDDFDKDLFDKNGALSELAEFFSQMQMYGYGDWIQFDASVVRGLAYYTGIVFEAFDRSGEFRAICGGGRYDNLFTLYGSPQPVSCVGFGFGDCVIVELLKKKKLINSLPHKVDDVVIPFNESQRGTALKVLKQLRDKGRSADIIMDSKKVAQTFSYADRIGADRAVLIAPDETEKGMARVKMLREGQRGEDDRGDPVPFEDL
UniProt P9WFT3, whole entry: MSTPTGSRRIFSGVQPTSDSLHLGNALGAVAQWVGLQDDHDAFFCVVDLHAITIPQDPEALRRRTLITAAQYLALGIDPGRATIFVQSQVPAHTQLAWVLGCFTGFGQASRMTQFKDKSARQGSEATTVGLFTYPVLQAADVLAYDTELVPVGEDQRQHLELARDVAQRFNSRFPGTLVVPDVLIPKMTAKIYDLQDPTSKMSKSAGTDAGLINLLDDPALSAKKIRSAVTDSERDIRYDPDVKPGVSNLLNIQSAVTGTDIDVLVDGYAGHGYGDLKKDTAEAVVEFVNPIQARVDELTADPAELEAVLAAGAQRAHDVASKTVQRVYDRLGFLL

Measurements from “University of Dundee, Small-Polar-MMV Screening Library” (2021), ChEMBL document CHEMBL3988442.

A: 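Enzyme assay of histidyl-tRNA synthetase; the read-out is not stated. Target: Histidine-tRNA ligase, Leishmania infantum (UniProt A4I591). Compounds at 30 µM. Higher reads as stronger inhibition (inferred: compounds with an IC50 in retests scored well above the rest). The assay is labelled LdHisRS but filed under L. infantum. About 69,000 compounds were tested under these conditions; 0.6% (about 410) showed 50% or more at least once.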
B: 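Whole-parasite assay of Trypanosoma brucei over 72 hours; the read-out is not stated. Concentration: 30 µM. Higher reads as stronger inhibition (inferred: compounds with an IC50 in retests scored well above the rest). Values scatter widely below zero; nearly all retest evidence comes from the higher of the two concentrations used. Of about 64,000 compounds tested this way, about 940 (1.5%) reached 50% or more in at least one test.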
C: 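Tryptophan-tRNA ligase, Mycobacterium tuberculosis (UniProt P9WFT3). Enzyme assay of tryptophanyl-tRNA synthetase; the read-out is not stated. Compounds at 10 µM. Direction is not recorded; retested compounds ran higher, which suggests that high means inhibition. Of about 65,000 compounds tested this way, about 64 (0.098%) reached 50% or more in at least one test.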

Results are given as percent effect. How 0% and 100% were set is not recorded. Most values in the screen are low, and negative values occur. The compounds are a random part of those screened. A dash means the value is not listed here; it may have been measured.

| structure | A | B | C |
|---|---|---|---|
| `CCc1ccc2c(C3CN(CC4CCC4)C3)ncn2c1` | 69.75 | - | -0.9166 |
| `c1ccc(Cc2noc(CCNC3CCOC4(CCOCC4)C3)n2)cc1` (centres unmarked) | -9.639 | -12.92 | 4.706 |
| `Fc1cccc2ncnc(NCC3(N4CCOCC4)CCSC3)c12` (centres unmarked) | 11.69 | -54.91 | 0.2337 |
| `COCC(=O)N1CCC(c2nc3ccc(-c4ccccc4)cn3n2)CC1` | 7.619 | -24.41 | 0.7401 |
| `CN1CCCC(CNC(=O)CN(C)S(=O)(=O)c2cccnc2)C1` (centres unmarked) | 14.51 | -10.54 | 18.51 |
| `Cc1ccc(NC(=O)Cn2cc(I)cn2)cc1C` | -10.53 | -62.87 | 1.977 |
| `Cc1cccc(-c2noc(CN3CC(n4cc(C)cn4)C3)n2)c1` | 13.7 | 20.82 | -6.315 |
| `COc1ccc(Cl)cc1CC(=O)N1CCN(CC(C)O)CC1` (centres unmarked) | 18.8 | - | -1.193 |
| `COCCN1C(=O)C[C@H]2[C@H]1CCN2Cc1cccc(C#N)c1` | 6.569 | - | -2.996 |
| `CNS(=O)(=O)c1ccc(CNC(=O)c2cccc(C)n2)cc1` | -1.739 | -18.78 | 20.16 |
| `C[C@H]1C[C@H]2CN(C(=O)c3ccncn3)CC[C@@H]2O1` | 20.51 | - | 1.936 |
| `Cc1nc(-c2noc3ccc(C(=O)NCCN4CCOCC4)cc23)cs1` | 15.97 | -34.9 | 1.833 |
| `CN1CC(=O)N(c2ccsc2)CC12CCN(S(=O)(=O)C1CC1)C2` (centres unmarked) | 17.28 | - | 2.699 |
| `CC1CCCCN1CCNC(=O)c1ccn(-c2ccc(F)cc2)n1` (centres unmarked) | 26.19 | 9.829 | -3.991 |
| `c1cnc(N2CCOCC3(CCN(c4cnccn4)CC3)C2)nc1` | 22 | -35.04 | -5.478 |
| `COCCN1CCN(C(=O)C(c2cccc(F)c2)N(C)C)CC1` (centres unmarked) | 12.4 | -18.53 | -1.724 |
| `COc1ccc(F)cc1CN1CCCC(c2cc(C(N)=O)[nH]n2)C1` (centres unmarked) | 9.459 | 27.2 | -0.2534 |
| `Cc1cnn(C2CCCN(C(=O)c3cc(-c4ccco4)[nH]n3)C2)c1` (centres unmarked) | 17.78 | -57.09 | 4.72 |
| `CCC(CC)CN1CCC2(CCC(=O)N2OCc2ccccc2F)CC1` | -3.306 | -10.04 | -2.848 |
| `Cc1ccc(CNCc2c[nH]nc2C(C)(C)C)c(OC2CCOC2)c1` (centres unmarked) | 5.172 | -38.61 | 0.5236 |
| `COc1ccccc1C1(CNc2cn[nH]c(=O)c2Cl)CCOCC1` | 30.14 | -10.15 | -1.815 |
| `CC(C)n1ncc2cc(NC(=O)N3CCC(N4CCCC4)C3)cnc21` (centres unmarked) | 24.62 | 28.2 | -0.2916 |
| `CCCC(C)CS(=O)(=O)NCCc1csc(N2CCCC2)n1` (centres unmarked) | 14.14 | -0.6915 | 0.6744 |
| `O=C(O)C1(Cc2cc(-c3cccc(F)c3)no2)CCOCC1` | 11.11 | 15.84 | 2.09 |
| `CNc1ccnc(NCCC(=O)Nc2ccccc2C)n1` | 14.75 | 51.25 | 1.932 |
| `CCCN1CCCN(CCCOc2cccc(C#N)c2)CC1` | 35.09 | -11.93 | -5.69 |
| `CC(C(=O)NCCc1cccs1)N1CCC(n2ccnc2)CC1` (centres unmarked) | 15.38 | -18.19 | -1.784 |
| `[H][C@@]12CN(Cc3ccc(C(F)(F)F)cc3)C[C@]1([H])OCC(=O)N2CC(N)=O` | - | -16.66 | - |
| `COc1ccc(CNC(=O)C2(C#N)CCCC2)cc1` | 24.04 | -58.55 | 1.327 |
| `CCc1ccc(C2COCCN2C(=O)Nc2cc(C)on2)o1` (centres unmarked) | 16.67 | -43.3 | -0.1698 |
| `Cc1ccc(CN2CCc3c(COCC4CC4)nn(C)c3C2)s1` | -1.923 | - | - |
| `CS(=O)(=O)N1C[C@@H](F)[C@@H](OCc2nc3ccccc3o2)C1` | -1.351 | -45.2 | 0.9863 |
| `CC(C)N1CC2(CCC1=O)CCN(C(=O)c1cccc(F)c1F)CC2` | 21.37 | -23.04 | 0.6861 |
| `CC(C)Cc1noc(CN(C)C[C@]2(O)CCCN3CCCC[C@@H]32)n1` | 10.83 | - | -2.75 |
| `CN(C)C(=O)COCc1nnc2n1CCN(Cc1ccsc1)C2` | 10 | - | -3.111 |
| `Cc1ccc(C(=O)N2CC[C@@H]3[C@H]2CCC(=O)N3CCN(C)C)cn1` | 18.8 | - | 20.45 |
| `O=C(NCCOc1ccc(Cl)cn1)NCCc1ccccn1` | 15.71 | -10.22 | -5.235 |
| `CNc1nccc(-c2cn(C)nc2C)n1` | 19.44 | 3.924 | -4.374 |
| `[H][C@]12CC[C@]([H])(CN(C(=O)c3ccccn3)C1)N(C(=O)CCc1ccsc1)C2` | - | -47.3 | - |
| `O=C(c1cc(C2CCCC2)no1)N1CCCCC1` | -1.124 | -17.1 | -1.214 |
| `Cn1ccnc1CNc1c(F)cccc1-n1cccn1` | 15.15 | -18.24 | 6.371 |
| `Cc1nn(C)c(C)c1CCC(=O)Nc1cccn(C)c1=O` | 21.92 | 1.584 | -2.006 |
| `Cc1cc(C)n(CC2CCCN2C(=O)c2ccc3[nH]c(=O)[nH]c3c2)n1` (centres unmarked) | 13.25 | -20.7 | 2.991 |
| `CC(=O)N1CC(=O)N(c2ccsc2)CC12CCN(Cc1ccoc1)C2` (centres unmarked) | 22.94 | -12.65 | -4.312 |
| `COc1cc(F)ccc1C(C(=O)O)N(C)Cc1ccon1` (centres unmarked) | 18.75 | -12.24 | -0.3749 |
| `CC(=O)c1ccc(-c2cnn(CC(=O)Nc3cc(C)nn3C)c2)nc1` | 2.222 | -12.68 | -1.235 |
| `O=C(NCc1cnc2n1CCN(Cc1nccs1)C2)c1ccno1.O=C(O)C(F)(F)F` | - | -34.13 | - |
| `Cn1ccnc1Sc1ncc(C(=O)N2CCCCC2)cc1Cl` | 2.632 | 1.996 | -7.588 |
| `Cc1ccc(Sc2ccc(N3CCCC(C(=O)O)C3)nn2)cc1` (centres unmarked) | 15.25 | -26.78 | 2.918 |
| `Cc1cccc(C2CCCN2S(=O)(=O)N(C)C)n1` (centres unmarked) | 4.348 | -1.569 | - |
| `Cc1ccc2cccc(S(=O)(=O)N(C)C3CCCN(C)C3)c2n1` (centres unmarked) | 3.297 | -35.79 | -0.712 |
| `CN(Cc1cc(-c2ccccc2)no1)Cc1nccn1C` | -6 | -46.71 | -2.697 |
| `O=C(CC1C=CCC1)N1CCc2ncnc(NCc3ccon3)c2CC1` (centres unmarked) | 0 | -91.72 | -0.1361 |
| `CC(C)n1ccnc1CN1CCCN(C(=O)c2ncccc2O)CC1` | 15.74 | 0.05949 | -3.476 |
| `NC1(CN2CCCCC2)CCCCC1` | 5.634 | - | -0.4755 |

Repeated from the top, 6 entries:

For CCc1ccc2c(C3CN(CC4CCC4)C3)ncn2c1 the result was A: 69.75%; C: -0.9166%.
For c1ccc(Cc2noc(CCNC3CCOC4(CCOCC4)C3)n2)cc1 (centres unmarked) the result was A: -9.639%; B: -12.92%; C: 4.706%.
For Fc1cccc2ncnc(NCC3(N4CCOCC4)CCSC3)c12 (centres unmarked) the result was A: 11.69%; B: -54.91%; C: 0.2337%.
For COCC(=O)N1CCC(c2nc3ccc(-c4ccccc4)cn3n2)CC1 the result was A: 7.619%; B: -24.41%; C: 0.7401%.
For CN1CCCC(CNC(=O)CN(C)S(=O)(=O)c2cccnc2)C1 (centres unmarked) the result was A: 14.51%; B: -10.54%; C: 18.51%.
For Cc1ccc(NC(=O)Cn2cc(I)cn2)cc1C the result was A: -10.53%; B: -62.87%; C: 1.977%.